From publication PMC12808100, “The non-catalytic DNA polymerase ε subunit is an NPF motif recognition protein” (Nature Communications, 2025)

Assays:
POLE2 S522A = experiment: Proximity labeling MS, POLE2 S522A; conditions: bait POLE2_S522A, spectral count
POLE2 E520A = experiment: Proximity labeling MS, POLE2 E520A; conditions: bait POLE2_E520A, spectral count

B1: ABT1 (protein, UniProt Q9ULW3 1-272, looked up)
Activator of basal …: MEAEESEKAATEQEPLEGTEQTLDAEEEQEESEEAACGSKKRVVPGIVYLGHIPPRFRPLHVRNLLSAYGEVGRVFFQAEDRFVRRKKKAAAAAGGKKRSYTKDYTEGWVEFRDKRIAKRVAASLHNTPMGARRRSPFRYDLWNLKYLHRFTWSHLSEHLAFERQVRRQRLRAEVAQAKRETDFYLQSVERGQRFLAADGDPARPDGSWTFAQRPTEQELRARKAARPGGRERARLATAQDKARSNKGLLARIFGAPPPSESMEGPSLVRDS
POLE2 S522A; replicate 1
  Spec: 12
POLE2 S522A; replicate 2
  Spec: 14
POLE2 E520A; replicate 1
  Spec: 14
POLE2 E520A; replicate 2
  Spec: 7
